PubChem BioAssay AID686943 – Drosophila RNAi Screening Center, 2013
In all, the deposit lists about 23,000 reagents; this is an unselected part of those with a known target gene and a result. 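Extra replicates exist only for a retested subset of genes; insulin dose and duration not given; both raised and lowered dpERK matter.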 Not all columns of the deposit are shown. Not given: the amount of reagent, the time to read-out.

- Assay: 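Search across the genome for regulators of signalling from receptor tyrosine kinase to ERK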 (primary screen)
- Cells: Drosophila S2R+ haemocyte-like cells expressing YFP-tagged ERK (Rolled)
- Reagents: long dsRNA against Drosophila genes
- Conditions: insulin stimulation versus unstimulated cells; dose and duration not given
- Measurement: 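Per-plate z-scores of phospho-ERK immunostaining normalised to YFP-tagged ERK, measured with and without insulin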
- Reading the numbers: replicate 1, z-score of dpERK with insulin and replicate 2, z-score of dpERK with insulin: higher = more active ERK per ERK-YFP after insulin

target gene,amplicon,"replicate 1, z-score of dpERK with insulin","replicate 2, z-score of dpERK with insulin"
Fum2,DRSC18345,0.68,0.18
CG17005,DRSC02556,0.08,-0.2
CG32448,DRSC22657,-0.39,-0.14
CG34171,DRSC01637,0.2,0.28
CG15429,DRSC00444,1.01,0.62
Fur2,DRSC19817,0.6,-0.3
f,DRSC19174,0.52,1.05
f,DRSC19516,-0.96,-0.61
f,DRSC20331,0.02,-0.26
Ugt37C2,DRSC02247,-1.13,0.19
CG43183,DRSC05113,0.49,0.92
CG10011,DRSC14174,-0.69,-0.21
Tdh,DRSC11788,-0.77,0.33
AGO2,DRSC09999,-7.43,-3.79
AGO2,DRSC10847,-4.61,-4.75
Alp12,DRSC02515,0.11,-0.02
CG3565,DRSC04389,-0.11,0.33
CG33288,DRSC11484,-0.11,-0.48
nej,DRSC18006,1,-0.6
nej,DRSC18801,-1.95,-2.66
Pdk1,DRSC08682,2.26,2.45
CG42458,DRSC08881,0.6,-0.45
CG42458,DRSC10335,-4.92,-3.82
CG30288,DRSC22005,0.29,0.65
CG4186,DRSC11753,-0.08,0.27
CG7430,DRSC10845,1.01,1.51
Pxd,DRSC16805,0.19,0.76
CG31365,DRSC15610,0.31,0.55
CG31087,DRSC14253,-0.21,-0.01
CG17270,DRSC15209,0.29,0.1
CG8066,DRSC16374,-0.08,-0.51
AGO3,DRSC21386,-0.08,1.08
Nmt,DRSC11236,1.46,1.03
CG16741,DRSC06622,0.07,0.36
rib,DRSC07021,-0.18,-0.09
CG5149,DRSC02819,0.64,-0.26
bocks,DRSC16489,-1.08,-0.45
CG8736,DRSC07255,0.08,-0.06
CG10589,DRSC11629,0.01,-0.13
pHCl-1,DRSC09401,-0.15,-0.47
pHCl-1,DRSC09888,0.44,0.15
pHCl-1,DRSC09991,0.45,-0.26
pHCl-1,DRSC10589,-0.48,0.92
CG6179,DRSC19973,-1.67,-0.29
CG6686,DRSC02979,3.45,3.75
CG9826,DRSC04570,0.18,0.19
UQCR-14,DRSC19870,-0.18,0.34
CG17032,DRSC10241,0.26,0.26
Gr59c,DRSC04185,0.16,1
oaf,DRSC00831,-0.53,-0.26
Ptr,DRSC04852,-0.81,-0.22
Ptr,DRSC21517,0.09,0.34
mEFG1,DRSC02758,-0.94,-0.35
Pgant1,DRSC07095,0.31,-0.37
CG3246,DRSC00584,0.15,0.92
CG4053,DRSC15538,0.7,-1.32
CG6700,DRSC02980,-0.08,-0.26

Already shown: an excerpt of the list.
target gene,amplicon,"replicate 1, z-score of dpERK with insulin","replicate 2, z-score of dpERK with insulin"
CG8736,DRSC07255,0.08,-0.06
CG10589,DRSC11629,0.01,-0.13
pHCl-1,DRSC09401,-0.15,-0.47
pHCl-1,DRSC09888,0.44,0.15
pHCl-1,DRSC09991,0.45,-0.26
pHCl-1,DRSC10589,-0.48,0.92
CG6179,DRSC19973,-1.67,-0.29
CG6686,DRSC02979,3.45,3.75
